Laboratory results as given in article PMC9098437.
These are yes or no findings as the source states them, for the method shown. In cells and extracts the contact can be indirect. A result given as binding can be weak or reduced; the word gives no strength. Sequences can lack the tags named with a protein.

What was measured:
[1] = target: T1, Atoh1-cYFP (UniProt P48985); assay: split reporter; bimolecular fluorescence complementation of YFP halves in transfected DAOY cells; fluorescence of the cells measured by flow cytometry
T1 sequence: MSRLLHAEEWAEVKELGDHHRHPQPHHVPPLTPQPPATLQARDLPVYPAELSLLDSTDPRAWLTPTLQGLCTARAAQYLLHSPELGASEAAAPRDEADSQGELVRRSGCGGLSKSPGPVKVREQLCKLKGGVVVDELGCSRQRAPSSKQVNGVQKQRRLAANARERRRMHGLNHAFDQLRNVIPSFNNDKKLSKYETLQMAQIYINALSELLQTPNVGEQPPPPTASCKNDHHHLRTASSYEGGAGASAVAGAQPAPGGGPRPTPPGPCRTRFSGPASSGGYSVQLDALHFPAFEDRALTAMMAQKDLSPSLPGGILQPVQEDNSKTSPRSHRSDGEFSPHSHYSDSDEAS

[2] = target: T2, ATOH1-GFP fusion protein (UniProt P48985); assay: co-IP; lysates of transfected HEK-293 T cells (results text: DAOY); ATOH1-GFP captured on GFP-Trap magnetic agarose beads overnight at 4 °C in CoIP lysis buffer (25 mM Tris-HCl pH 7.5, 150 mM NaCl, 1 mM EDTA, 1% NP-40); blots for GFI1, FLAG, GFP; without ethidium bromide
T2 sequence: T1 sequence

E47-nYFP (from UniProt P15806-2)
binding [1]: binds

Flag-tagged E47 (from UniProt P15806-2)
binding [2]: binds
